{"source": "patent US20100273733A1", "about": "“HIV Treatment” (priority 2009, published 2010)", "test_system": "Jurkat (T-lymphocyte) cells infected with HIV", "assay": "Selective toxicity, cell viability by MTT or XTT, HIV-infected cells", "type": "cell-based", "conditions": "Jurkat cells infected with HIV at MOI 0.1 or 0.01, treated 48 hours", "note": "At least one structure is not confirmed: it was looked up by name or label, or the drawing left a doubt.", "data": [{"smiles": "C[C@@H]1C[C@H]2[C@@H]3CCC4=CC(=O)C=C[C@]4(C)[C@@]3(F)[C@@H](O)C[C@]2(C)[C@@]1(O)C(=O)CO", "note": "[Dex, dexamethasone]", "values": [{"measurement": "toxicity (cell viability)", "result": "did not indicate significant toxicity"}]}]}
